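Genome-wide siRNA knockdown in TC32 Ewing sarcoma cells, comparing luciferase light from an NR0B1-promoter reporter with a CMV-promoter reporter 48 hours after transfection. Each siRNA was applied at 20 nM. A z-score of the log NR0B1-over-CMV signal, less the median of siRNAs with the same seed; more negative means a stronger specific loss of the NR0B1 reporter.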

The strongest results of the screen are mostly left out here. Sequences are the guide (antisense) strand, without overhang.

Result for AGAAAUUCUAUAAUCACGU against FAM9C was seed-corrected z-score 0.4054. UGUAUGACAAGGUCAUAGC against ZNF544 gave seed-corrected z-score 0.2194. With UUUAGGUAAACUAUUACCC against KANSL1L the assay gave seed-corrected z-score 0.665. UCCUGGAACACGAACAUCU against SPERT gave seed-corrected z-score -0.4299. With UAAUCCACUGCAUCAGUCC against SLC28A3 the assay gave seed-corrected z-score 0.5099. UCUAUUGCUUCCAUAAUUC against PUS7L read seed-corrected z-score 0.6188.

With AAUUCGUUAACUGUUUGCC against TMEM181 the assay gave seed-corrected z-score 1.432. With UUCCCAACAAUCAGUGUGA against TMEM234 the assay gave seed-corrected z-score -0.4085. For UGAGUAAUGAUGACUUGGG against SPEM1 the result was seed-corrected z-score -0.01201. With AUCGGAGUGACUUCAGGAC against FUT10 the assay gave seed-corrected z-score -0.2639. Result for AAAAGGAAGGGUCUGGUGG against PPIAP19 was seed-corrected z-score 0.4025. Result for AGCUGUCCCAUAGUUAGGC against GABARAPL2 was seed-corrected z-score -0.2659.

For UUGUUGUGAAGCCUCAUUC against WNT10A the result was seed-corrected z-score 1.384. UCAUCGUCCUCAUUCGUGC against SPRY4 gave seed-corrected z-score -1.578. With AAAGCUUCAAGUGAGGUGG against VRK3 the assay gave seed-corrected z-score -1.42. For UUGAUUUUGAUCCAGUAGC against KRTCAP3 the result was seed-corrected z-score 1.594. UAACUAUGGUCCGUAGUGC against NRF1 read seed-corrected z-score 0.05621. AGAAUAUCGGCAUUAAUCC against FAM151B gave seed-corrected z-score 0.926.

UAAGUUACCAUAAUUAGUC against KIAA0101 read seed-corrected z-score -0.9753. AUCGGUCAAGGAACAGUUG against COG1 read seed-corrected z-score 0.2044. With AGUACGACCAUCGUCAACU against LINC01197 the assay gave seed-corrected z-score 0.7661. With UAUUUACCACAGAAUCUUG against ZNF45 the assay gave seed-corrected z-score 0.5293. With UUAGCAUAGGUCAUGAUCC against AKAP3 the assay gave seed-corrected z-score 0.2842. AUCGUUUUCACUUCAUGCC against CCDC168 gave seed-corrected z-score -0.9402.

UUGUUUCUUAAUGCUAGGG against FOXR2 gave seed-corrected z-score 0.05535. With UUUGUAACAGGAGCUAGGC against MRVI1 the assay gave seed-corrected z-score 0.3965. Result for AAACCAUUAGGAUAUUUCC against SLC25A20 was seed-corrected z-score -0.588. Result for UCGCGUAAAAGUAGCGUGC against NTNG1 was seed-corrected z-score -0.05158. With UUCCUUCCUGGUGUUCAGC against HOST2 the assay gave seed-corrected z-score 0.305. Result for AAAGUUCUCGAAGCCCUCC against NUDT17 was seed-corrected z-score -1.23.

For UACUGUCCAAAUCUAACCG against ARHGAP9 the result was seed-corrected z-score -1.167. For UGUUGUGCAAGUUCAUGAG against WNT7A the result was seed-corrected z-score -0.03459. For UAUAUGACAGCAAUUUGGG against SNAPC1 the result was seed-corrected z-score -0.6625. UUCUUGAUGUGCCUGGUCG against EIF3K gave seed-corrected z-score 0.005467. UUUCACGACAUCAUCAACC against MRPS15 gave seed-corrected z-score 0.4928. UGGAAUUCACCCACCCUCC against DNAJC4 gave seed-corrected z-score -0.642.

UCUUUGUUGAUCACUGCGG against ZFPM1 read seed-corrected z-score 1.202. With AUAUCGGUUGGGAUAAUUC against DDX58 the assay gave seed-corrected z-score 0.08731. UGAAUUCUAUUUGUGAUCC against C4BPA gave seed-corrected z-score -0.1276. For UCUUCUUCUCCUCACAGGC against PRF1 the result was seed-corrected z-score 1.161. With AGCAGUACAACCAAAAGCC against SLC27A6 the assay gave seed-corrected z-score -1.192. UGAAUUUACCAUGUAGGGC against GTDC1 gave seed-corrected z-score 0.6158.

With UCCACGACCACUUUUUGCG against TRMT1 the assay gave seed-corrected z-score -0.1222. With UCUUCGUCAUUCCUCACGG against HIST2H2AB the assay gave seed-corrected z-score 0.07187. UCUCUGAUUCAGACACUCC against HSPH1 gave seed-corrected z-score -0.194. UGAGUUAUUCUUCCGCUUG against TET1 read seed-corrected z-score -0.2062. UUCUGAAUAUGAUCAACUG against ZNF645 gave seed-corrected z-score -0.7895.

For reference, 5 entries once more:

| siRNA | target gene | seed-corrected z-score |
|---|---|---|
| `AGUACGACCAUCGUCAACU` | LINC01197 | 0.7661 |
| `UACUGUCCAAAUCUAACCG` | ARHGAP9 | -1.167 |
| `UUUGUAACAGGAGCUAGGC` | MRVI1 | 0.3965 |
| `UUAGCAUAGGUCAUGAUCC` | AKAP3 | 0.2842 |
| `AGCAGUACAACCAAAAGCC` | SLC27A6 | -1.192 |

Data taken from PubChem BioAssay AID1159506, deposited by NCATS (2015).